Earlier results in patent publication US20170296498A1, “Rapid Relief of Motor Fluctuations in Parkinson's Disease” (Civitas Therapeutics, Inc., priority 2014, published 2017).

Conditions: even when co-administered with carbidopa; cited from earlier work

N[C@@H](Cc1ccc(O)c(O)c1)C(=O)O [L-Dopa, levodopa]
plasma half-life: 1 to 3 h
